Data: patent US20240343835A1, “COVALENT HETEROBIVALENT ANTIBODY INHIBITORS AND LIGANDS” (UNIVERSITY OF NOTRE DAME DU LAC, priority 2015, published 2024)
At least one compound was matched to its structure with a doubt left.

Molecular target: IgE^DNP (SPE-7)
Assay: Fluorescence quenching binding with SPE-7
Design: species or system mouse

SMILES: O=[N+]([O-])c1ccc(O)c([N+](=O)[O-])c1 [DNP, dinitrophenol]
- Kd: 58.3 nM
